PubChem BioAssay AID1224830 | NIAID – 2016

Assay: 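Genes whose knock-down alters the TNF-alpha reporter response to LPS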 (primary screen)
Cells: human THP-1 monocytic leukaemia cells, TNF dual-luciferase reporter clone, PMA-differentiated to macrophage-like cells
Knock-down reagent: siRNA pool against human genes, 50 nM
Duration: LPS for 4 h, given about 3 days after siRNA transfection
Challenge: bacterial LPS (TLR4 ligand), 10 ng/ml
Read-out: 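TNF firefly reporter luminescence divided by renilla, normalised to the plate median, then turned into a robust z-score for each replicate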
Reading the numbers: TNF reporter robust z-score: higher = stronger TNF reporter response to LPS
Hit rule: 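Each well counts as active if its z-score is over 2.8 or under -1.5; controls are left without a call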
The deposit covers about 18,000 reagents; below is a part drawn at random. Of all reagents, about 2,900 (16%) were called active. 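Calls are made per well; low scores hint the gene aids the LPS response, high scores that it dampens it.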 Repeated entries: four replicate wells of each siRNA pool.

| Gene | TNF reporter robust z-score | Call |
| --- | --- | --- |
| RERG (RAS like estrogen regulated growth inhibitor) | -1.02 | inactive |
| RERG (RAS like estrogen regulated growth inhibitor) | -0.92 | inactive |
| RERG (RAS like estrogen regulated growth inhibitor) | -0.87 | inactive |
| RERG (RAS like estrogen regulated growth inhibitor) | -0.8 | inactive |
| PRR7 (proline rich 7, synaptic) | 0.1 | inactive |
| PRR7 (proline rich 7, synaptic) | 0.5 | inactive |
| PRR7 (proline rich 7, synaptic) | -0.36 | inactive |
| PRR7 (proline rich 7, synaptic) | 0.71 | inactive |
| WDR41 (WD repeat domain 41) | 0.65 | inactive |
| WDR41 (WD repeat domain 41) | 1.04 | inactive |
| WDR41 (WD repeat domain 41) | 2.13 | inactive |
| WDR41 (WD repeat domain 41) | 2.06 | inactive |
| TTLL5 (tubulin tyrosine ligase like 5) | 3.7 | active |
| TTLL5 (tubulin tyrosine ligase like 5) | 0.02 | inactive |
| TTLL5 (tubulin tyrosine ligase like 5) | -0.09 | inactive |
| TTLL5 (tubulin tyrosine ligase like 5) | 0.58 | inactive |
| SLC18A2 | -1.07 | inactive |
| SLC18A2 | -0.51 | inactive |
| SLC18A2 | -0.89 | inactive |
| SLC18A2 | -0.6 | inactive |
| GNB2 (G protein subunit beta 2) | 0.33 | inactive |
| GNB2 (G protein subunit beta 2) | 0.14 | inactive |
| GNB2 (G protein subunit beta 2) | 0.57 | inactive |
| GNB2 (G protein subunit beta 2) | -0.88 | inactive |
| PLA2G2A (phospholipase A2 group IIA) | -0.41 | inactive |
| PLA2G2A (phospholipase A2 group IIA) | -0.06 | inactive |
| PLA2G2A (phospholipase A2 group IIA) | -0.69 | inactive |
| PLA2G2A (phospholipase A2 group IIA) | 0.51 | inactive |
| ATP5PO (ATP synthase peripheral stalk subunit OSCP) | -0.63 | inactive |
| ATP5PO (ATP synthase peripheral stalk subunit OSCP) | -0.23 | inactive |
| ATP5PO (ATP synthase peripheral stalk subunit OSCP) | -0.07 | inactive |
| ATP5PO (ATP synthase peripheral stalk subunit OSCP) | -0.09 | inactive |
| RAI1 (retinoic acid induced 1) | -0.26 | inactive |
| RAI1 (retinoic acid induced 1) | 0.14 | inactive |
| RAI1 (retinoic acid induced 1) | -0.44 | inactive |
| RAI1 (retinoic acid induced 1) | -0.45 | inactive |
| MAEA (macrophage erythroblast attacher, E3 ubiquitin ligase) | 0.59 | inactive |
| MAEA (macrophage erythroblast attacher, E3 ubiquitin ligase) | 0.31 | inactive |
| MAEA (macrophage erythroblast attacher, E3 ubiquitin ligase) | -0.51 | inactive |
| MAEA (macrophage erythroblast attacher, E3 ubiquitin ligase) | 0.34 | inactive |
| PUM2 (pumilio RNA binding family member 2) | 0.43 | inactive |
| PUM2 (pumilio RNA binding family member 2) | -0.52 | inactive |
| PUM2 (pumilio RNA binding family member 2) | -0.23 | inactive |
| PUM2 (pumilio RNA binding family member 2) | 0.47 | inactive |
| ACYP2 (acylphosphatase 2) | 0.32 | inactive |
| ACYP2 (acylphosphatase 2) | 1.14 | inactive |
| ACYP2 (acylphosphatase 2) | 0.89 | inactive |
| ACYP2 (acylphosphatase 2) | 0 | inactive |
| EMC8 (ER membrane protein complex subunit 8) | 0.96 | inactive |
| EMC8 (ER membrane protein complex subunit 8) | -1 | inactive |
| EMC8 (ER membrane protein complex subunit 8) | 0.83 | inactive |
| EMC8 (ER membrane protein complex subunit 8) | 0.39 | inactive |
| RTKN2 (rhotekin 2) | 0.86 | inactive |
| RTKN2 (rhotekin 2) | 1.33 | inactive |
| RTKN2 (rhotekin 2) | 0.72 | inactive |
| RTKN2 (rhotekin 2) | 0.24 | inactive |
| LTB (lymphotoxin beta) | -0.84 | inactive |
| LTB (lymphotoxin beta) | -0.9 | inactive |
| LTB (lymphotoxin beta) | -0.99 | inactive |
| LTB (lymphotoxin beta) | -0.67 | inactive |
| LHFPL3 (LHFPL tetraspan subfamily member 3) | -0.16 | inactive |
| LHFPL3 (LHFPL tetraspan subfamily member 3) | 0.58 | inactive |
| LHFPL3 (LHFPL tetraspan subfamily member 3) | 0.74 | inactive |
| LHFPL3 (LHFPL tetraspan subfamily member 3) | 0.08 | inactive |
| NIPSNAP3B (nipsnap homolog 3B) | -0.4 | inactive |
| NIPSNAP3B (nipsnap homolog 3B) | 0.28 | inactive |
| NIPSNAP3B (nipsnap homolog 3B) | 0.16 | inactive |
| NIPSNAP3B (nipsnap homolog 3B) | 0.62 | inactive |
| PRRG1 (proline rich and Gla domain 1) | 0.55 | inactive |
| PRRG1 (proline rich and Gla domain 1) | 0.8 | inactive |
| PRRG1 (proline rich and Gla domain 1) | 0.27 | inactive |
| PRRG1 (proline rich and Gla domain 1) | 0.09 | inactive |
| CRYBA4 (crystallin beta A4) | -0.86 | inactive |
| CRYBA4 (crystallin beta A4) | -0.97 | inactive |
| CRYBA4 (crystallin beta A4) | -0.36 | inactive |
| CRYBA4 (crystallin beta A4) | 0.08 | inactive |
| SPAG6 (sperm associated antigen 6) | -0.54 | inactive |
| SPAG6 (sperm associated antigen 6) | 0.18 | inactive |
| SPAG6 (sperm associated antigen 6) | -0.2 | inactive |
| SPAG6 (sperm associated antigen 6) | 0.34 | inactive |
| ELMO3 (engulfment and cell motility 3) | -1.43 | inactive |
| ELMO3 (engulfment and cell motility 3) | -0.53 | inactive |
| ELMO3 (engulfment and cell motility 3) | -0.86 | inactive |
| ELMO3 (engulfment and cell motility 3) | -0.87 | inactive |
| ITPR3 (inositol 1,4,5-trisphosphate receptor type 3) | -0.85 | inactive |
| ITPR3 (inositol 1,4,5-trisphosphate receptor type 3) | -1.09 | inactive |
| ITPR3 (inositol 1,4,5-trisphosphate receptor type 3) | -1.32 | inactive |
| ITPR3 (inositol 1,4,5-trisphosphate receptor type 3) | -0.82 | inactive |
| MTNAP1 (mitochondrial nucleoid associated protein 1) | 0.63 | inactive |
| MTNAP1 (mitochondrial nucleoid associated protein 1) | 0.17 | inactive |
| MTNAP1 (mitochondrial nucleoid associated protein 1) | 0.8 | inactive |
| MTNAP1 (mitochondrial nucleoid associated protein 1) | -0.05 | inactive |
| SREK1IP1 (SREK1 interacting protein 1) | -0.33 | inactive |
| SREK1IP1 (SREK1 interacting protein 1) | 0.77 | inactive |
| SREK1IP1 (SREK1 interacting protein 1) | -0.22 | inactive |
| SREK1IP1 (SREK1 interacting protein 1) | -0.12 | inactive |
| ACO1 (aconitase 1) | -0.34 | inactive |
| ACO1 (aconitase 1) | -0.06 | inactive |
| ACO1 (aconitase 1) | -0.47 | inactive |
| ACO1 (aconitase 1) | -0.1 | inactive |
| SMAD7 (SMAD family member 7) | 0.68 | inactive |
| SMAD7 (SMAD family member 7) | 0.77 | inactive |
| SMAD7 (SMAD family member 7) | 0.2 | inactive |
| SMAD7 (SMAD family member 7) | 1.03 | inactive |
| AHSA2P (activator of HSP90 ATPase homolog 2, pseudogene) | -0.86 | inactive |
| AHSA2P (activator of HSP90 ATPase homolog 2, pseudogene) | -0.35 | inactive |
| AHSA2P (activator of HSP90 ATPase homolog 2, pseudogene) | -0.58 | inactive |
| AHSA2P (activator of HSP90 ATPase homolog 2, pseudogene) | 0 | inactive |
| ICAM3 (intercellular adhesion molecule 3) | -0.16 | inactive |
| ICAM3 (intercellular adhesion molecule 3) | 0.97 | inactive |
| ICAM3 (intercellular adhesion molecule 3) | -0.53 | inactive |
| ICAM3 (intercellular adhesion molecule 3) | 0.19 | inactive |
| PRPSAP2 (phosphoribosyl pyrophosphate synthetase associated protein 2) | 0.34 | inactive |
| PRPSAP2 (phosphoribosyl pyrophosphate synthetase associated protein 2) | 0.67 | inactive |
| PRPSAP2 (phosphoribosyl pyrophosphate synthetase associated protein 2) | 0.49 | inactive |
| PRPSAP2 (phosphoribosyl pyrophosphate synthetase associated protein 2) | 1.17 | inactive |
| SPR (sepiapterin reductase) | -1.31 | inactive |
| SPR (sepiapterin reductase) | -1.48 | inactive |
| SPR (sepiapterin reductase) | -0.62 | inactive |
| SPR (sepiapterin reductase) | -1.27 | inactive |
| TRIL (TLR4 interactor with leucine rich repeats) | -0.84 | inactive |
| TRIL (TLR4 interactor with leucine rich repeats) | 1.24 | inactive |
| TRIL (TLR4 interactor with leucine rich repeats) | 1.29 | inactive |
| TRIL (TLR4 interactor with leucine rich repeats) | 0.27 | inactive |
| SYT7 (synaptotagmin 7) | 0.51 | inactive |
| SYT7 (synaptotagmin 7) | 0.34 | inactive |
| SYT7 (synaptotagmin 7) | 0.07 | inactive |
| SYT7 (synaptotagmin 7) | 0.54 | inactive |
| PRAF2 (PRA1 domain family member 2) | -1.68 | active |
| PRAF2 (PRA1 domain family member 2) | -1.73 | active |
| PRAF2 (PRA1 domain family member 2) | -1.27 | inactive |
| RFPL4B (ret finger protein like 4B) | 0.73 | inactive |
| RFPL4B (ret finger protein like 4B) | -1.06 | inactive |
| RFPL4B (ret finger protein like 4B) | -0.09 | inactive |
| RFPL4B (ret finger protein like 4B) | -0.51 | inactive |
| CLEC7A (C-type lectin domain containing 7A) | -0.55 | inactive |
| CLEC7A (C-type lectin domain containing 7A) | 0.2 | inactive |
| CLEC7A (C-type lectin domain containing 7A) | -0.7 | inactive |
| CLEC7A (C-type lectin domain containing 7A) | -0.86 | inactive |
| XPC | 1.47 | inactive |
| XPC | 1.34 | inactive |
| XPC | 0.08 | inactive |
| XPC | 1.4 | inactive |

24 neighbouring records already listed:
| Gene | TNF reporter robust z-score | Call |
| --- | --- | --- |
| ICAM3 (intercellular adhesion molecule 3) | -0.53 | inactive |
| ICAM3 (intercellular adhesion molecule 3) | 0.19 | inactive |
| PRPSAP2 (phosphoribosyl pyrophosphate synthetase associated protein 2) | 0.34 | inactive |
| PRPSAP2 (phosphoribosyl pyrophosphate synthetase associated protein 2) | 0.67 | inactive |
| PRPSAP2 (phosphoribosyl pyrophosphate synthetase associated protein 2) | 0.49 | inactive |
| PRPSAP2 (phosphoribosyl pyrophosphate synthetase associated protein 2) | 1.17 | inactive |
| SPR (sepiapterin reductase) | -1.31 | inactive |
| SPR (sepiapterin reductase) | -1.48 | inactive |
| SPR (sepiapterin reductase) | -0.62 | inactive |
| SPR (sepiapterin reductase) | -1.27 | inactive |
| TRIL (TLR4 interactor with leucine rich repeats) | -0.84 | inactive |
| TRIL (TLR4 interactor with leucine rich repeats) | 1.24 | inactive |
| TRIL (TLR4 interactor with leucine rich repeats) | 1.29 | inactive |
| TRIL (TLR4 interactor with leucine rich repeats) | 0.27 | inactive |
| SYT7 (synaptotagmin 7) | 0.51 | inactive |
| SYT7 (synaptotagmin 7) | 0.34 | inactive |
| SYT7 (synaptotagmin 7) | 0.07 | inactive |
| SYT7 (synaptotagmin 7) | 0.54 | inactive |
| PRAF2 (PRA1 domain family member 2) | -1.68 | active |
| PRAF2 (PRA1 domain family member 2) | -1.73 | active |
| PRAF2 (PRA1 domain family member 2) | -1.27 | inactive |
| RFPL4B (ret finger protein like 4B) | 0.73 | inactive |
| RFPL4B (ret finger protein like 4B) | -1.06 | inactive |
| RFPL4B (ret finger protein like 4B) | -0.09 | inactive |
